Assay results as given in the supplement of paper PMC6078165.
Values are relative to the signal before dosing, not to a vehicle control; the signal also falls without drug.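 Labels refer to human fibroblasts, largely primary: uterine (C12385, HUF), lung (H6013), bone (Hs27A), adrenal (HADF), skin (WS1), plus mammary HMF and breast cancer-associated Hs343T. Cancer lines are basal-like or mesenchymal-like triple-negative breast cancer. The paper counts as hits responses shifting over 3x the replicate standard deviation. The tissue of the other fibroblasts is not given here.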

Test system: MDAMB231
Assay: relative JC-1 red fluorescence (viability) vs pre-drug, coculture with fibroblast (fraction); higher = more viable cancer cells
Details: 10 µM
Experimental: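 JC-1 labelled TNBC cells cocultured 1:1 (1,500 cells each) with CellTrace Violet stained primary or stromal fibroblasts in 384-well plates in FluoroBrite medium, treated with one of 42 anticancer drugs at 0.1, 1, 10 or 100 uM. JC-1 red fluorescence (mitochondrial integrity in cancer cells only) was read by plate reader every 8 h for 72 h. Values are normalised to each well's pre-drug value. The stock of one drug was tenfold lower, so its dose labels may be too high.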

CC[C@]1(O)C[C@H]2CN(CCc3c([nH]c4ccccc34)[C@@](C(=O)OC)(c3cc4c(cc3OC)N(C=O)[C@H]3[C@@](O)(C(=O)OC)[C@H](OC(C)=O)[C@]5(CC)C=CCN6CC[C@]43[C@@H]65)C2)C1 [Vincristine]
relative JC-1 red fluorescence
Details | 8 h | 16 h | 24 h | 32 h | 40 h | 48 h | 56 h | 64 h | 72 h
coculture fibroblast: C12385 | 0.767 | 0.756 | 0.663 | 0.69 | 0.642 | 0.611 | 0.568 | 0.565 | 0.546
coculture fibroblast: H6013 | 0.899 | 0.85436 | 0.81352 | 0.79376 | 0.746 | 0.7121 | 0.6919 | 0.6703 | 0.6319
coculture fibroblast: H6019 | 0.783 | 0.742 | 0.721 | 0.712 | 0.674 | 0.673 | 0.643 | 0.667 | 0.658
coculture fibroblast: H6076 | 0.87107 | 0.8022 | 0.771 | 0.747 | 0.718 | 0.697 | 0.676 | 0.671 | 0.675
coculture fibroblast: H6231 | 0.901 | 0.798 | 0.75 | 0.713 | 0.662 | 0.636 | 0.608 | 0.597 | 0.573
coculture fibroblast: HADF | 0.889 | 0.871 | 0.827 | 0.8 | 0.761 | 0.714 | 0.6834 | 0.659 | 0.6134
coculture fibroblast: HCFa | 0.8837 | 0.8377 | 0.801 | 0.7642 | 0.713 | 0.674 | 0.644 | 0.6132 | 0.582
coculture fibroblast: HCPF | 0.858 | 0.779 | 0.734 | 0.708 | 0.665 | 0.62 | 0.596 | 0.566 | 0.546
coculture fibroblast: HHSteC | 0.90301 | 0.866 | 0.818 | 0.779 | 0.738 | 0.693 | 0.658 | 0.622 | 0.583
coculture fibroblast: HMF | 0.871 | 0.823 | 0.7922 | 0.7673 | 0.737 | 0.706 | 0.6719 | 0.662 | 0.641
coculture fibroblast: HPFa | 0.946 | 0.9244 | 0.877 | 0.824 | 0.801 | 0.765 | 0.712 | 0.675 | 0.633
coculture fibroblast: HUF | 0.861 | 0.771 | 0.833 | 0.717 | 0.665 | 0.661 | 0.619 | 0.636 | 0.638
coculture fibroblast: Hs5 | 0.902 | 0.841 | 0.7905 | 0.75 | 0.706 | 0.649 | 0.61 | 0.589 | 0.574
coculture fibroblast: Hs27A | 0.913 | 0.8519 | 0.80679 | 0.776 | 0.7179 | 0.6501 | 0.644 | 0.617 | 0.571
coculture fibroblast: Hs343T | 0.857 | 0.788 | 0.742 | 0.692 | 0.65 | 0.61 | 0.56 | 0.541 | 0.509
coculture fibroblast: WS1 | 0.793 | 0.783 | 0.73 | 0.718 | 0.683 | 0.657 | 0.614 | 0.605 | 0.583
